The values that follow come from PubChem BioAssay AID662 (National Center for Advancing Translational Sciences (NCATS), 2007).

The list shows a part of the results. The main result of the screen is listed elsewhere. These columns were measured beside it and carry no call. Compounds called inactive in the main read-out are mostly missing here. Words in brackets tell the shape of the fitted curve; partial curves, single points and poor fits give uncertain potencies.

A short description of this assay: Cell signaling CRE-BLA (Fsk stim). As to conditions: CHO CRE-bla reporter (cAMP response element driving beta-lactamase), forskolin EC10, beta-lactamase ratio; measured here: 460 nm blue channel. The text has this:
NIH Molecular Libraries Screening Centers Network [MLSCN]
NIH Chemical Genomics Center [NCGC]
Assay Provider: Marshall W. Nirenberg, U.S. National heart lung & blood institute
Memories persist for different lengths of time, from seconds or minutes to a lifetime. There are two kinds of memory: short-term memory (STM) and long-term memory (LTM). STM lasts for minutes to hours, which maybe mediated by modifications of molecules involved in synaptic functions. LTM lasts for days or longer, and may be due to the formation of new synapses or restructuring of existing synapses. LTM, but not STM, requires gene transcription and synthesis of proteins. CREB (cyclic-AMP Responsive Element Binding Protein) is one of the candidates plays an important role for enhancement of some types of LTM. CREB, a family of transcription factors, regulates the transcription of genes containing cAMP Responsive Elements (CRE). CRE is a nucleotide sequence often found in the promoter regions of genes that are binding sites for CREB.
Using a beta-lactamase reporter-gene under control of cAMP responsive element, a cell-based assay [CellSensor(TM) CRE-bla CHO developed by Invitrogen Corp.] was used to measure forskolin-induced signaling. Library compounds were measured for their ability to modulate positively or negatively the action of EC10 NKH 477, a water soluble forskolin, on reporter gene activity. Compounds were screened in a titration series in 1536-well format. Positive and negative modulators were identified based on the AC50 values derived from the screening data.
NCGC Assay Protocol Summary
2000 cells/5uL in Opti-MEM medium containing 0.5% dialyzed FBS, 0.1 mM NEAA, 1 mM sodium pyruvate and 10 mM HEPES was dispensed into 1536-well plates and cells were cultured at 37 degrees Celsius overnight. […] And then the plates were incubated at 37 degrees Celsius for 3 hours. 1 uL of CCF4-dye mixture was added to each well. After incubated at room temperature for 2 hours the plates were measured on an EnVision plate reader at Excitation 405nm, Emission1=460nm and Emission 2=530nm. The %Activity was determined from the ratio of 460nm/530nm.
Keywords: NIH Roadmap, MLSCN, MLSMR, qHTS, NCGC, CRE, beta-lactamase reporter-gene assay.
As for `O=C1C(C=NCCN2CCOCC2)=C(O)c2ccccc21`, the AC50 (usually the midpoint of the concentration-response curve, whichever way the signal moves) is 1.26 µM [falling, partial curve, poor fit]. As to `O=C(N1CCOCC1)N(Cc1ccco1)CC1CCCO1` (stereo not drawn), the AC50 is 0.0794 µM [falling, full curve, poor fit]. To `COc1ccc(OC)c(Nc2cc(-c3ccccc3)nc(N)n2)c1` belongs 3.98 µM [rising, single point].

`O=C(CSc1nnc(COc2ccccc2)n1Cc1ccco1)NCc1ccco1`: the AC50 is 31.6 µM [falling, single point]. For `CCn1c2ccccc2c2cc(NC(=O)Cc3ccc(S(=O)(=O)N4CCOCC4)s3)ccc21`, the AC50 was 1.26 µM [falling, partial curve]. In the case of `CN1CCN(CCCNC(=O)c2cc3c(=O)n(C)c4ccccc4c3s2)CC1`, the half-maximal activity concentration (AC50) is 10 µM [rising, single point]. Regarding `CC1CCCC(C)N1C(=O)CSc1nnc(-c2c[nH]c3ccccc23)o1` (stereo not drawn), the AC50 was 12.6 µM [rising, single point]. To `CCN(CC)S(=O)(=O)c1ccc(C(=O)OC2CCCCC2CN(C)C)cc1` (stereo not drawn) belongs 10 µM [rising, single point]; to `Cc1c(C(C)O)nnn1-c1nonc1N` (stereo not drawn), 0.00398 µM [falling, full curve, poor fit]. With `O=C1c2ccccc2C(=O)N1OCCOCCOCCON1C(=O)c2ccccc2C1=O`, the AC50 is 0.00316 µM [falling, full curve, poor fit].

As for `O=c1[nH]c(C2CCCN(S(=O)(=O)c3ccccc3)C2)nc2c1nnn2Cc1ccccc1` (stereo not drawn), the AC50 is 10 µM [rising, partial curve].

With `CC(C)(CC(=O)N1CCN(c2ccc(Cl)cc2)CC1)CC1=NS(=O)(=O)c2ccccc2N1`, the AC50 is 12.6 µM [falling, single point]. As to `Cc1cccc2cc(C#N)c(NCCNS(=O)(=O)c3ccc4c(c3)OCCO4)nc12`, the AC50 is 12.6 µM [rising, partial curve]. For the compound `Cn1c(=O)n(C)c2cc(C(=O)O)ccc21`, the AC50 was 25.1 µM [falling, single point]. Then `O=c1c(CCc2ccccc2)nc2cnc(N3CCNCC3)nc2n1C1CC1`, with 15.8 µM [rising, single point]; and `O=C(Nc1ccc(-n2nncc2-c2ccco2)cc1)c1cccc(F)c1`, with 12.6 µM [rising, single point]; and `CCn1cc(C(=O)NCc2ccco2)c(=O)c2cc(S(=O)(=O)N3CCc4ccccc4C3)ccc21`, with 12.6 µM [falling, partial curve]. For the compound `COc1ccc(N(CC(=O)Nc2cccc(C(C)=O)c2)S(C)(=O)=O)cc1OC`, the AC50 was 12.6 µM [rising, partial curve]. For `COC(=O)c1cc(OC)c(OC)cc1NC(=O)c1c(-c2ccccc2Cl)noc1C`, the AC50 was 0.501 µM [rising, partial curve]. For `Cn1c(=O)c2c(nc(SCCNS(=O)(=O)c3ccccc3)n2C)n(C)c1=O`, the AC50 was 20 µM [rising, single point]. In the case of `COC(=O)c1ccccc1NC(=O)c1noc2c1CCCC2`, the AC50 is 25.1 µM [rising, single point]. Turning to `CCOC(=O)Cc1csc(NC(NC(=O)CC)(C(F)(F)F)C(F)(F)F)n1`, the AC50 was 0.2 µM [rising, partial curve, poor fit].

For the compound `COc1ccc(O)c(/C=c2/sc3nc4cc(C)c(C)cc4n3c2=O)c1`, the AC50 was 20 µM [rising, single point].

Consider `COc1ccc(NC(=O)CCOc2ccccc2)c(OC)c1`, for which the AC50 is 0.631 µM [falling, full curve]. As to `CC(=O)c1sc(Nc2ccccn2)nc1C`, the AC50 is 12.6 µM [rising, partial curve].

With `COc1cccc(C2=Nn3c(nnc3-c3ccccc3O)SC2)c1`, the AC50 was 2.51 µM [rising, full curve]. On to `Nc1ccc(O)cc1C(=O)OCC(=O)C12CC3CC(CC(C3)C1)C2`, for which the half-maximal activity concentration (AC50) was 12.6 µM [rising, single point]. To `Cc1cc2c(c(Sc3ccccc3)n1)C(=O)OC2` belongs 25.1 µM [rising, single point]; to `COc1cccc(Cn2c(=O)c(-c3cn(C)c4ccccc34)nc3cnc(N4CCOCC4)nc32)c1`, 12.6 µM [rising, partial curve]. `CCOC(=O)c1sc(NC(=O)c2c(C)noc2C)c(C(=O)OCC)c1C`: the AC50 is 0.00501 µM [falling, full curve, poor fit].

With `COCc1cc(C)nc(SCC(=O)Nc2cccc3cccnc23)c1C#N`, the AC50 is 12.6 µM [rising, partial curve]. `O=c1[nH]c2ccccc2nc1-c1cccs1`: the AC50 is 10 µM [rising, partial curve]. Regarding `Cc1sc2nc(C(C)C)nc(SCC(=O)NCc3ccco3)c2c1C`, the AC50 is 7.94 µM [rising, partial curve]. In the case of `CCCOc1ccc(-c2nc(C#N)c(N3CCN(CC)CC3)o2)cc1`, the AC50 is 20 µM [rising, partial curve].

As for `Cc1ccc(NC(=O)c2noc3c2CCCCC3)cc1C`, the AC50 was 20 µM [rising, single point]. Turning to `COC(=O)c1ccc(Cn2cnc3ccccc3c2=O)cc1`, the AC50 was 12.6 µM [rising, single point]. `COc1ccc(-n2cnnc2SCc2csc(-c3ccccc3)n2)cc1`: the AC50 is 10 µM [rising, single point]. As for `Cc1cccc(C)c1NS(=O)(=O)c1ccc(F)cc1`, the AC50 was 25.1 µM [falling, single point]. With `CCOC(=O)Cn1c(=O)oc2cc(S(=O)(=O)NC3CCCc4ccccc43)ccc21` (stereo not drawn), the AC50 is 12.6 µM [rising, partial curve]. For `CC(C)[C@@H](CC(=O)N[C@@H]1CCCC[C@H]1C(=O)N[C@H](CC(=O)N[C@@H](CCC(=O)O)CC(=O)O)Cc1c[nH]c2ccccc12)NC(=O)C[C@H](CO)NC(=O)[C@@H]1CNCC[C@H]1N`, the AC50 is 10 µM [falling, partial curve]. As for `Cc1cc(C)nc(-n2nc(C)c(C3(O)C(=O)Nc4ccc(F)cc43)c2N)n1` (stereo not drawn), the AC50 is 3.98 µM [falling, partial curve].

For the compound `O=C(COC(=O)c1ccco1)NCC1CCCO1` (stereo not drawn), the AC50 is 12.6 µM [rising, single point].

Turning to `Nc1nc2sc3c(c2c(=O)s1)CCCC3`, the AC50 was 7.94 µM [rising, partial curve]. As for `O=C(Nc1ccc(F)cc1)N1CCC(c2nc3c(nnn3Cc3cccc(Cl)c3)c(=O)[nH]2)CC1`, the concentration at half-maximal activity (AC50) is 25.1 µM [rising, single point]. With `O=[N+]([O-])c1cc(Cl)cc2c1nc(NCCO)c1ccccc12`, the AC50 was 5.01 µM [rising, single point]. With `COc1ccc(C(=O)COC(=O)c2ccc(OC)c(OC)c2)cc1OC`, the AC50 is 10 µM [rising, partial curve]. Regarding `COc1cccc(CNc2nc3nc(C)cc(C)n3n2)c1`, the AC50 was 0.631 µM [rising, full curve].

For `COc1nc(NCC(C)C)nc(Oc2ccc(=O)n(-c3ccccc3)n2)n1`, the AC50 was 10 µM [rising, partial curve]. For the compound `CCn1nc(C(=O)NCCc2ccc(S(N)(=O)=O)cc2)c2ccccc2c1=O`, the AC50 was 15.8 µM [rising, single point]. Regarding `Cc1ccc2nc(N3CCN(Cc4ccc(F)cc4)C3=O)c(C)cc2c1`, the AC50 was 0.794 µM [falling, full curve]. On to `Cc1ccccc1-c1ccc2ncnc(N3CCN(C)CC3)c2c1`, for which the AC50 is 5.01 µM [rising, partial curve]. Regarding `COc1ccc(-c2noc(CCC(=O)Nc3ccc4c(c3)OCCO4)n2)cc1`, the AC50 is 0.631 µM [falling, full curve]. With `Cc1ccc(-c2cn3nc(C)c(C)nc3n2)cc1`, the AC50 was 3.98 µM [rising, partial curve]. Consider `CC(C)(C)n1ncc2c(=O)n(CC(=O)NCc3ccccc3)cnc21`, for which the AC50 was 0.501 µM [falling, partial curve]. Then `CCn1c(N)nc2c1c(=O)n(C)c(=O)n2C`, with 15.8 µM [rising, partial curve].

Take `O=C(OCCN=C1NS(=O)(=O)c2ccccc21)C1CC(=O)N(c2ccc(Cl)cc2)C1` (stereo not drawn): the AC50 is 0.00316 µM [falling, full curve, poor fit].

Take `Cc1cnc(CNc2ncnc3ccc(-c4ccc5c(c4)OCO5)cc23)cn1`: the AC50 was 12.6 µM [rising, partial curve]. Turning to `c1ccc(-c2noc(-c3ccc4c(c3)OCO4)n2)nc1`, the AC50 was 25.1 µM [rising, single point]. Then `CC(=O)Nc1ccc(C(=O)CCl)cc1`, with 31.6 µM [falling, single point]; and `COC(=O)[C@@]1(Cc2ccccc2)[C@H]2c3cc(C(=O)N4CCCC4)n(CCc4ccccn4)c3C[C@H]2CN1C(=O)c1ccccc1`, with 7.94 µM [rising, partial curve]; and `N#Cc1nc(Cc2ccccc2)oc1N1CCC(Cc2ccccc2)CC1`, with 3.98 µM [rising, partial curve].

As for `c1ncc(CC2CCNCC2)[nH]1`, the AC50 was 31.6 µM [falling, single point]. Then `COCCNc1nc(-c2ccccc2C)nc2ccccc12`, with 10 µM [rising, partial curve]. Then `Fc1ccc(-c2csc3nnc(SCc4cccnc4)n23)cc1`, with 15.8 µM [rising, single point]. In the case of `C=CCNc1sc(C(=O)C(C)(C)C)c(N)c1C#N`, the AC50 is 7.94 µM [rising, partial curve]. Then `CCOC(=O)CCn1nc(-c2ccccc2)cc1N`, with 0.1 µM [falling, full curve, poor fit].

On to `CN(C)c1ncc2nc(-c3cc(F)cc(F)c3)c(=O)n(C[C@H]3CCCO3)c2n1`, for which the AC50 is 0.01 µM [rising, full curve].

Turning to `CNC[C@H](O)c1ccc(OC(=O)C(C)(C)C)c(OC(=O)C(C)(C)C)c1`, the AC50 is 10 µM [falling, partial curve].
